Assay results reported in publication PMC10973386.
No constants are given. Whether binding was seen depends on the method and setting. Binding seen in cells or lysates may run through a third protein. Some entries that bind do so weakly or less than the wild type. Tags and fused reporters may be left off the sequences shown.

The chains behind the UniProt entries cited, without tags or fusion partners.
UniProt Q9Y5B8: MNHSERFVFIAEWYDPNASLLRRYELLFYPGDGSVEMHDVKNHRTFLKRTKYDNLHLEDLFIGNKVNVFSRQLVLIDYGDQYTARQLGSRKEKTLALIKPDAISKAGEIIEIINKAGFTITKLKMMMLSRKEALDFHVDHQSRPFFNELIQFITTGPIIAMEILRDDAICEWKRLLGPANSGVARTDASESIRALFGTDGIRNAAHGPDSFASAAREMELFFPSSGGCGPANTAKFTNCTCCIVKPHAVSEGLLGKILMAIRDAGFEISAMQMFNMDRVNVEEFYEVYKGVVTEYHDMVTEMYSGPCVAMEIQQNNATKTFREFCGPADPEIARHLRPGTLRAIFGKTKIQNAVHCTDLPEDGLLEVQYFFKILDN

Molecular target: T1, FLAG-TCHP full length (human) (UniProt Q9BT92)
T1 sequence: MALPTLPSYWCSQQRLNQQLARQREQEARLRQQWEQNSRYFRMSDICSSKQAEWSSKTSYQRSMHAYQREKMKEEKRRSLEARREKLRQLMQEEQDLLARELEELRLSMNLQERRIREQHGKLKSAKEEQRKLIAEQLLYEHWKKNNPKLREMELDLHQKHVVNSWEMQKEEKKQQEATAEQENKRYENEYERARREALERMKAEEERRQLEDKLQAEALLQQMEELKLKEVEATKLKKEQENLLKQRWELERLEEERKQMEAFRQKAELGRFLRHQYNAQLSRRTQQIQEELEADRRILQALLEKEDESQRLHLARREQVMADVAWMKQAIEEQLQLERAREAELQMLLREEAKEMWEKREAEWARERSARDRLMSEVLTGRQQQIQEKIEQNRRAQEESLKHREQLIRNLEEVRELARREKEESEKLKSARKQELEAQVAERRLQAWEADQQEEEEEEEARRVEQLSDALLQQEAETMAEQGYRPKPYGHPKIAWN
Test: co-IP; FLAG pulldown: FLAG-tagged constructs expressed in HEK293T cells; lysis in EBC buffer (140 mM NaCl, 10 mM Tris-HCl, 0.5% NP-40, protease inhibitors); anti-FLAG (M2) magnetic beads 1 h, five washes, elution with FLAG peptide; immunoblot

binding: binds
Substance: NME7 in HEK293T cells (from UniProt Q9Y5B8 1-376)
